Structures can show the parent of a compound that is named as a salt. This is one part of the list. Single values are uncertain here, since repeats match poorly.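 In a drug-repurposing library screen, luminescence reads luciferase driven by eight TEAD-binding elements, stably integrated into human kidney-derived cells. Compounds scoring over five robust Z scores above the plate mean are called hits.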
Tested on: HEK293A TEAD-LUC reporter
Test: TEAD-luciferase reporter activity (YAP activation), robust Z score vs plate; higher = stronger YAP/TEAD activation
Conditions: 24 h

Structure (SMILES)	TEAD-luciferase reporter activity (compound concentration: 200 nM)	TEAD-luciferase reporter activity (compound concentration: 2 uM)	TEAD-luciferase reporter activity (compound concentration: 10 uM)
CC(Cc1c[nH]cn1)/N=C(\c1ccccc1)c1ccccc1O (stereo not given)	inactive: -0.974	inactive: -1.4	inactive: -0.657
O=C(O)CN1CCN(C(c2ccccc2)c2cccc(C(F)(F)F)c2)CC1 (stereo not given) [Tilapertin]	inactive: -0.611	inactive: 0.639	inactive: 0.999
CCCCN1CCCCC1C(=O)Nc1c(C)cccc1C (stereo not given) [bupivacaine, Durect-2]	inactive: -0.483	inactive: -1.21	inactive: -0.383
CCOC(=O)[C@H]1CC2(CCN(C(=O)[C@@H](CCCc3ccccc3)NC(=O)C(C)(C)N)CC2)c2ccccc21	inactive: 0.38	inactive: -0.339	inactive: 0.611
O=C1NCCN1CCN1CCN([C@@H]2C[C@@H](c3ccc(F)cc3)c3ccccc32)CC1	inactive: 0.98	inactive: 0.462	inactive: 2.2
CCCCCCC(COC(=O)c1cccnc1)(COC(=O)c1cccnc1)COC(=O)c1cccnc1	inactive: 0.885	inactive: 0.919	inactive: -0.996
COCC(=O)Nc1cc(Sc2ccccc2)ccc1N/C(=N\C(=O)OC)NC(=O)OC [Febantel]	inactive: 1.53	inactive: -1.04	inactive: 0.768
CC(C)(C)c1ccc2c(S(=O)(=O)[O-])c(C(C)(C)C)ccc2c1	inactive: -0.25	inactive: 2.1	inactive: -0.845
CC(C)(C)CCCCCC(=O)[O][Pt-2]1([O]C(=O)CCCCCC(C)(C)C)[NH2+][C@H]2CCCC[C@@H]2[NH2+]1 [close analog of NDDP]	–	inactive: -0.615	–
CC(C)(C)CCCCCC(=O)[O][Pt-2]1([O]C(=O)CCCCCC(C)(C)C)[NH2+][C@H]2CCCC[C@@H]2[NH2+]1	inactive: -2.92	–	inactive: -1.48
CCCCCCCCCCCCCCC1(C(=O)OC)CO1 (stereo not given)	inactive: -1.01	inactive: -0.503	active: 5.66
C[C@@]1(F)[C@H](O)[C@@H](CO)O[C@H]1n1ccc(N)nc1=O	inactive: -1.54	inactive: -0.506	inactive: -0.778
COc1ccc(NC(C)=O)c(NS(=O)(=O)c2ccc(F)c(F)c2F)c1	inactive: -0.176	inactive: -0.671	inactive: -1.61
CC12C=CC(=O)C=C1CCC1C2C(=O)CC2(C)C1CCC2(O)C(=O)CO (stereo not given) [Prednisone]	inactive: -0.458	–	inactive: 3.47
CSCC[C@H](NC(=O)[C@H](CC(C)C)NC(=O)CNC(=O)[C@H](Cc1ccccc1)NC(=O)[C@H](Cc1ccccc1)NC(=O)[C@H](CCC(N)=O)NC(=O)[C@H](CCC(N)=O)NC(=O)[C@@H]1CCCN1C(=O)[C@H](CCCCN)NC(=O)[C@@H]1CCCN1C(=O)[C@@H](N)CCCNC(=N)N)C(N)=O [Substance P]	inactive: -1.26	inactive: -0.527	inactive: -0.199
CC1(C)CC(C)(C)CC(C)(N)C1 [Neramexane hydrochloride]	inactive: -0.358	inactive: -1.41	inactive: -0.656
NS(=O)(=O)c1ccc(S(=O)(=O)Nc2cccc3c(Cl)c[nH]c23)cc1 [indisulam]	inactive: 0.162	active: 14.5	active: 11.1
COc1ccc(S(=O)(=O)Nc2nnc(CC(C)C)s2)cc1	inactive: 0.859	inactive: -0.0472	inactive: -1.55

Structure (SMILES)	TEAD-luciferase reporter activity (compound concentration: 200 nM)	TEAD-luciferase reporter activity (compound concentration: 2 uM)	TEAD-luciferase reporter activity (compound concentration: 10 uM)
COc1cccc([C@@H](C)NCCCc2ccccc2Cl)c1 [Tecalcet hydrochloride]	inactive: -2.21	inactive: -0.96	inactive: 1.36
O=C(c1ccccc1)c1ccc2n1CCC2C(=O)O (stereo not given)	inactive: -2.65	–	inactive: -0.998
O=C(c1ccccc1)c1ccc2n1CCC2C(=O)O (stereo not given) [ketorolac]	–	inactive: -1.86	–
CC(=O)Nc1ccc(O)cc1OC[C@@](C)(O)CNC1CCN(Cc2ccc(Cl)cc2)CC1	inactive: -1.89	inactive: 0.477	inactive: 1.13
CN(C)c1cccc2c(S(=O)(=O)Nc3ccc(NC(=O)C(C)(C)CO)cc3)cccc12 [Tomeglovir]	inactive: -0.957	inactive: 0.914	inactive: 0.404
CCOCCOC(=O)C(=O)Nc1nc(-c2cc(C)no2)cs1	inactive: -1.91	inactive: -0.437	inactive: -0.626
CCOC(=O)CCc1cc(Cl)ccc1C(=O)CCCNC(C)=O	inactive: 0.441	inactive: -0.00298	inactive: -0.524
COc1ccc(CN(CCN(C)C)c2ncccn2)cc1	inactive: -0.969	inactive: 1.23	inactive: 0.029
CNCC(O)c1cccc(NS(C)(=O)=O)c1 (stereo not given)	inactive: -0.077	inactive: -1.15	inactive: -0.29
CCc1ccc2c(c1)C=C(C(=O)O)[C@H](C(F)(F)F)O2	inactive: -1.55	inactive: -0.19	inactive: 0.225
CN(C/C=C/c1ccccc1)Cc1cccc2ccccc12 [Naftifine hydrochloride]	inactive: -1.14	inactive: 0.577	inactive: -1.43
O=C(c1ccc(F)cc1)N1CCN(C(c2ccccc2)c2ccccc2)CC1	inactive: -0.674	inactive: -1.97	inactive: -1.69
C[C@@H](c1ncncc1F)[C@](O)(Cn1cncn1)c1ccc(F)cc1F [voriconazole]	–	inactive: -1.45	–
C[C@@H](c1ncncc1F)[C@](O)(Cn1cncn1)c1ccc(F)cc1F	inactive: -0.547	–	inactive: -0.155
Nc1c(Cl)cc(-c2nn(C3CCN(CCc4ccccc4)CC3)c(=O)o2)c2c1OCCO2 [Capeserod hydrochloride]	inactive: 0.724	inactive: -0.52	inactive: 1.8
CCCCS(=O)(=O)Nc1ccccc1C(=O)N[C@H](CC)c1ccc(OC)nc1	inactive: -0.448	inactive: 0.535	inactive: -0.995
CC(O)c1ccc(S(=O)(=O)NC(=O)NC2CCCCC2)cc1 (stereo not given)	inactive: 0.637	inactive: 1.86	inactive: 1.05

A portion taken from the entries so far, as a working copy:
Structure (SMILES)	TEAD-luciferase reporter activity (compound concentration: 200 nM)	TEAD-luciferase reporter activity (compound concentration: 2 uM)	TEAD-luciferase reporter activity (compound concentration: 10 uM)
CN(C/C=C/c1ccccc1)Cc1cccc2ccccc12 [Naftifine hydrochloride]	inactive: -1.14	inactive: 0.577	inactive: -1.43
O=C(c1ccc(F)cc1)N1CCN(C(c2ccccc2)c2ccccc2)CC1	inactive: -0.674	inactive: -1.97	inactive: -1.69
C[C@@H](c1ncncc1F)[C@](O)(Cn1cncn1)c1ccc(F)cc1F [voriconazole]	–	inactive: -1.45	–
C[C@@H](c1ncncc1F)[C@](O)(Cn1cncn1)c1ccc(F)cc1F	inactive: -0.547	–	inactive: -0.155
Nc1c(Cl)cc(-c2nn(C3CCN(CCc4ccccc4)CC3)c(=O)o2)c2c1OCCO2 [Capeserod hydrochloride]	inactive: 0.724	inactive: -0.52	inactive: 1.8
CCCCS(=O)(=O)Nc1ccccc1C(=O)N[C@H](CC)c1ccc(OC)nc1	inactive: -0.448	inactive: 0.535	inactive: -0.995
CC(O)c1ccc(S(=O)(=O)NC(=O)NC2CCCCC2)cc1 (stereo not given)	inactive: 0.637	inactive: 1.86	inactive: 1.05

Reference: the supplement of paper PMC10735217
